For the assay, the target named is N-cadherin (human (endogenous in HCLE)) (UniProt P19022). Put plainly: co-IP; endogenous proteins of HCLE cells (untreated, olomoucine-treated or ShCdk5), lysed in RIPA buffer; 200 μg of extract; immunoprecipitates collected on magnetic beads and immunoblotted. In general terms: A western blot detects proteins with antibodies after separation by electrophoresis.

Sequences of proteins named here, by UniProt entry; tags and fusion partners are left off. Residues count along the entry.
UniProt P19022, residues 160-906: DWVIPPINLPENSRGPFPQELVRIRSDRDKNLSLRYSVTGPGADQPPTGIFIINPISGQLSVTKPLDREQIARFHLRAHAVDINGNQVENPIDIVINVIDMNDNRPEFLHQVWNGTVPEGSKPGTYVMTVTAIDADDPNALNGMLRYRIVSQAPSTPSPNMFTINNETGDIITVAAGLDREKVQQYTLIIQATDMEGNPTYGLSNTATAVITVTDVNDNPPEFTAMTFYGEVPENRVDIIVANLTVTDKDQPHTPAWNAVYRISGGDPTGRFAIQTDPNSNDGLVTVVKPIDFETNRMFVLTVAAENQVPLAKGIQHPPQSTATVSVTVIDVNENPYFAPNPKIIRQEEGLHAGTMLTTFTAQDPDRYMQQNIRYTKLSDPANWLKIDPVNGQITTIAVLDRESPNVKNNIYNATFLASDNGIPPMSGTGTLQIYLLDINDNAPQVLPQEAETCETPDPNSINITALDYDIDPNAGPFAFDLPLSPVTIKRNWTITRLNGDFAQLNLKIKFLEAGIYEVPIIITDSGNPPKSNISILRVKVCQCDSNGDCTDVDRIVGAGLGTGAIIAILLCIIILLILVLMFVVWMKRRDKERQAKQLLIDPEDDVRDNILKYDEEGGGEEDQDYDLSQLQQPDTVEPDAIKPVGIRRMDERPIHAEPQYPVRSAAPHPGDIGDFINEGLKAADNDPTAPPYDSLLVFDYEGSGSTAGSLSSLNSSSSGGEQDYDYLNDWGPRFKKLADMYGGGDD

No constants are given. Whether binding was seen depends on the method and setting. In cells and extracts the contact can be indirect. Some binding calls cover weakened binding; strength is not graded here.

B1: p120 catenin (protein, UniProt O60716 1-968)
chain: MDDSEVESTASILASVKEQEAQFEKLTRALEEERRHVSAQLERVRVSPQDANPLMANGTLTRRHQNGRFVGDADLERQKFSDLKLNGPQDHSHLLYSTIPRMQEPGQIVETYTEEDPEGAMSVVSVETSDDGTTRRTETTVKKVVKTVTTRTVQPVAMGPDGLPVDASSVSNNYIQTLGRDFRKNGNGGPGPYVGQAGTATLPRNFHYPPDGYSRHYEDGYPGGSDNYGSLSRVTRIEERYRPSMEGYRAPSRQDVYGPQPQVRVGGSSVDLHRFHPEPYGLEDDQRSMGYDDLDYGMMSDYGTARRTGTPSDPRRRLRSYEDMIGEEVPSDQYYWAPLAQHERGSLASLDSLRKGGPPPPNWRQPELPEVIAMLGFRLDAVKSNAAAYLQHLCYRNDKVKTDVRKLKGIPVLVGLLDHPKKEVHLGACGALKNISFGRDQDNKIAIKNCDGVPALVRLLRKARDMDLTEVITGTLWNLSSHDSIKMEIVDHALHALTDEVIIPHSGWEREPNEDCKPRHIEWESVLTNTAGCLRNVSSERSEARRKLRECDGLVDALIFIVQAEIGQKDSDSKLVENCVCLLRNLSYQVHREIPQAERYQEAAPNVANNTGPHAASCFGAKKGKDEWFSRGKKPIEDPANDTVDFPKRTSPARGYELLFQPEVVRIYISLLKESKTPAILEASAGAIQNLCAGRWTYGRYIRSALRQEKALSAIADLLTNEHERVVKAASGALRNLAVDARNKELIGKHAIPNLVKNLPGGQQNSSWNFSEDTVISILNTINEVIAENLEAAKKLRETQGIEKLVLINKSGNRSEKEVRAAALVLQTIWGYKELRKPLEKEGWKKSDFQVNLNNASRSQSSHSYDDSTLPLIDRNQKSDKKPDREEIQMSNMGSNTKSLDNNYSTPNERGDHNRTLDRSGDLGDMEPLKGTTPLMQDEGQESLEEELDVLVLDDEGGQVSYPSMQKI
Turning to B1, the binding result is on record as “binds”.

The values are drawn from publication PMC3566902.
